From the supplement of paper PMC12282887
Values are raw readings; no control value is given beside them.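 The top concentration was set near the MIC for antimicrobials, at 500 µM for most other compounds, and up to 1 mM for known inducer-like compounds. Deletion strains started from a tenfold smaller inoculum, and wells growing below 10% of the overall median were treated as non-growing.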

Test system: Escherichia coli BW25113
Assay: growth (OD600 area under curve, 8 h) (OD600 x h); higher = more growth
Procedure: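 E. coli BW25113 reporter strains (wild type, ΔmarA, ΔsoxS, Δrob, each carrying one of 8 lux reporter plasmids) were grown in 40 µl LB in 384-well plates at 37°C, 800 rpm, with each compound at 4 two-fold concentrations, in biological duplicates. Growth is the baseline-corrected OD600 area under the curve over 8 h (0-8 h WT, 1-9 h deletion strains).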

CC1(C)S[C@@H]2[C@H](NC(=O)[C@H](N)c3ccc(O)cc3)C(=O)N2[C@H]1C(=O)O [Amoxicillin]
growth
Conditions | reporter plasmid: EVC | reporter plasmid: acrABp | reporter plasmid: marRABp | reporter plasmid: micFp | reporter plasmid: ompFp | reporter plasmid: robp | reporter plasmid: soxSp | reporter plasmid: tolCp
0.25 µg/ml, genetic background: wild type | 3.03 | 3.44 | 3.458 | 2.99 | 3.258 | 3.44 | 2.83 | 2.88
0.25 µg/ml, genetic background: ΔmarA | 3.26 | 4.41 | 4.05 | 3.35 | 3.85 | 4.33 | 3.17 | 3.09
0.25 µg/ml, genetic background: Δrob | 3.1 | 3.569 | 3.61 | 2.82 | 2.89 | 3 | 2.71 | 2.97
0.25 µg/ml, genetic background: ΔsoxS | 3.2 | 3.47 | 3.61 | 2.909 | 3.36 | 3.64 | 3.31 | 3.03
0.5 µg/ml, genetic background: wild type | 2.81 | 3.4 | 3.47 | 2.87 | 3.14 | 3.24 | 2.67 | 2.806
0.5 µg/ml, genetic background: ΔmarA | 3.01 | 4.18 | 3.95 | 3.24 | 3.72 | 4.17 | 2.99 | 2.99
0.5 µg/ml, genetic background: Δrob | 2.92 | 3.36 | 3.61 | 2.74 | 2.76 | 3.12 | 2.69 | 2.98
0.5 µg/ml, genetic background: ΔsoxS | 3.01 | 3.22 | 3.47 | 2.853 | 3.35 | 3.4 | 3.33 | 2.9
1 µg/ml, genetic background: wild type | 3.15 | 3.8 | 3.45 | 2.88 | 3.33 | 3.41 | 2.79 | 2.79
1 µg/ml, genetic background: ΔmarA | 3.69 | 4.59 | 4.18 | 3.45 | 4.08 | 4.7 | 3.55 | 3.47
1 µg/ml, genetic background: Δrob | 3.08 | 3.85 | 3.85 | 3.13 | 3.09 | 3.01 | 2.99 | 3.18
1 µg/ml, genetic background: ΔsoxS | 3.23 | 3.61 | 3.62 | 2.98 | 3.48 | 3.86 | 3.5 | 3.04
2 µg/ml, genetic background: wild type | 2.12 | 0.225 | 0.593 | 1.13 | 0.11 | 0.885 | 1.9 | 1.8977
2 µg/ml, genetic background: ΔmarA | 2.19 | 0.326 | 0.471 | 1.51 | 0.155 | 1.46 | 1.798 | 1.73
2 µg/ml, genetic background: Δrob | 1.59 | 0.274 | 0.342 | 0.83 | -0.00693 | 0.11 | 1.74 | 1.84
2 µg/ml, genetic background: ΔsoxS | 1.95 | 0.208 | 0.257 | 0.839 | 0.0818 | 0.0969 | 0.821 | 2.16
